Data from patent US20220252583A1, “SEMICONDUCTOR BASED BIOSENSOR UTILIZING THE FIELD EFFECT OF A NOVEL COMPLEX COMPRISING A CHARGED NANOPARTICLE” (LIFE SCIENCE INKUBATOR SACHSEN GMBH & CO. KG, priority 2019, published 2022).

Test system: monoclonal mouse IgG1 anti human CRP antibody B08
Experiment: Displacement reaction on swCNT-FET biosensor: CRP displaces peptide 80715-Au nanoparticle complex from the antibody
Type: binding
Conditions: constant current, reaction time 10 minutes, peptide 80715 complex
Experimental: The current sensor chips are conducted by crocodile clamps to a dual-channel source meter (Keithley 2612B). The samples are applied by a pipet. Sample volumes are varied between 10 and 50 μl.
As gate electrode a Ag/AgCl electrode operating in a top gate setting was used. A feedback circuit was also implemented, which measures constantly the applied gate current and regulates the gate current voltage if necessary.
A complex comprising a second binding molecule that is coupled to Au nanoparticle via a linker has been produced as described in example 1. 5 nM Au particles with 10 functionally coupled peptides per Au particle were used in the experiment.
The biosensor was functionalized as described in example 4, in this experiment with the monoclonal mouse IgG1 anti human CRP antibody B08. The affinity of the antibody was first tested against CRP (SEQ ID NO: 1) and the modified peptide sequences of SEQ ID NOs: 2 to 6.
The subsequent displacement measurements were performed with the peptide 80715 (SEQ ID NO: 5).
The Au nanoparticles are bound to the CRP-specific antibody via a peptide and exert a field effect on the semiconductor. If the biomarker (in this case CRP) is present in the blood sample, it can displace the nanoparticle and thus annul the field effect.
By adding different concentrations of the biomarker CRP, the current-voltage curve of the transistor has changed accordingly. The following CRP concentration s were used: 381 fM, 3 pM, 24 pM, 195 pM, 1.56 nM, 12.5 nM, 100 nM and 800 nM.
At constant current, changes in the biomarker concentration were measured as voltage changes. […] Reaction times were 10 minutes, measurements were performed in PBS (i.e. 150 mM salt concentration).

CRP: biomarker C-reactive protein, the analyte detected by the biosensor
ΔV (V) (CRP concentration 3 pM in PBS): −0.013 V
ΔV (V) (CRP concentration 24 pM in PBS): −0.016 V
ΔV (V) (CRP concentration 195 pM in PBS): −0.017 V
ΔV (V) (CRP concentration 1.56 nM in PBS): −0.020 V
ΔV (V) (CRP concentration 12.5 nM in PBS): −0.022 V
ΔV (V) (CRP concentration 100 nM in PBS): −0.024 V
ΔV (V) (CRP concentration 800 nM in PBS): −0.027 V
ΔV (V) (CRP concentration 381 fM in PBS): −0.009 V
